Results from PubChem BioAssay AID2685 (National Center for Advancing Translational Sciences (NCATS), 2010).
This is one part of the list. Further columns of the screen follow, without active or inactive calls. Most of these compounds were active or inconclusive in the main read-out, so they are no random draw. Words in brackets tell the shape of the fitted curve; partial curves, single points and poor fits give uncertain potencies.

Test: qHTS Assay for Lipid Storage Modulators in Drosophila S3 Cells;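 for cell number change: cells counted by Cell Tracker Red CMTPX staining in the red channel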
Conditions: BODIPY lipid droplet fluorescence, 18-24 h; for cell number change: measured here: cell count max response, cells fed with added oleic acid
In short: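 Drosophila S3 cells loaded with oleic acid (400 uM, as added) and compounds at several concentrations; lipid droplets imaged by 488-nm laser-scanning cytometry, 500–530 nm intensity and object ratio to cell channel. Percent activity normalized to 20 uM Triacsin C.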

[1] = measured here: cell number channel AC50, cells fed with added oleic acid
[2] = measured here: lipid fluorescence (Fed channel) AC50, cells fed with added oleic acid

Compound | cell number change [%] | AC50 [1] | AC50 [2]
COc1ccccc1CNC(=O)COC(=O)CSc1ccc(F)cc1 | -74.7 | 25.9 µM [falling, single point] | –
CCN1CCN(C(=O)NC(c2ccc(C)c(F)c2)C(Cl)Cl)CC1 (configuration not stated) | -2.46 | – | –
Cc1nn(-c2ccccc2)c(C)c1/C=N/NC(=O)CSc1nc2ccccc2c(=O)n1-c1ccc(Br)cc1 | – | 0.517 µM [rising, single point] | –
COc1ccc(C(=O)Nc2cc(C(F)(F)F)ccc2Cl)cc1OC | -6.87 | – | 0.00517 µM [rising, full curve, poor fit]
COCCNc1ncnc2c1cnn2Cc1ccc(Cl)cc1 | – | – | 0.731 µM [rising, single point]
O=C(NCCC1CCCCN1S(=O)(=O)c1ccc(Cl)cc1)C(=O)NCc1ccco1 (configuration not stated) | -34.9 | 9.2 µM [falling, partial curve] | –
CC(=O)NC1C(Oc2ccccc2C)OC2COC(c3ccco3)OC2C1O (configuration not stated) | -55.4 | 5.8 µM [falling, full curve] | 20.6 µM [falling, single point]
CC(C)c1ccc(CNNC(=O)c2ccccc2)cc1 | 3.62 | – | 29.1 µM [falling, single point]
O=C(COC(=O)c1ccc2ccccc2c1O)Nc1ccccc1 | 39.4 | 18.4 µM [rising, single point] | –
COc1cc(C2CC(=O)N3CN(Cc4ccccc4)CSC3=C2C#N)ccc1OCc1ccccc1 (configuration not stated) | 13.9 | – | 0.164 µM [rising, full curve, poor fit]
O=C(NCCC1CCCCN1S(=O)(=O)c1ccccc1)C(=O)NCCN1CCOCC1 (configuration not stated) | -12.3 | – | 0.0731 µM [falling, full curve, poor fit]
Cc1ccc(-n2c(SCC(=O)N(C)C3CCS(=O)(=O)C3)nc3ccccc3c2=O)cc1 (configuration not stated) | 41.1 | 8.2 µM [rising, partial curve, poor fit] | –
COc1ccc(-c2nnc(C3CCN(S(=O)(=O)c4ccccc4)CC3)o2)cc1 | -1.44 | – | 13 µM [falling, single point]
COc1ccc(S(=O)(=O)NC2CC2)cc1C(=O)N1CCOCC1 | 24.5 | – | 0.326 µM [rising, partial curve, poor fit]
O=C(c1cccnc1NCc1ccccc1)N1CCOCC1 | -10.2 | 6.51 µM [falling, single point] | 6.51 µM [falling, single point]
Cc1cc(C)c(C#N)c(OCc2ccc(Cl)nc2)n1 | 22 | – | –
COc1ccc(CN(C)CC(O)COc2ccc(C(=O)c3ccccc3)cc2)c(OC)c1OC (configuration not stated) | 22.6 | 0.00651 µM [rising, full curve, poor fit] | 23.1 µM [falling, partial curve]
Clc1ccc(N=c2ssnc2Cl)cc1 | – | 0.164 µM [falling, partial curve] | 0.731 µM [falling, full curve]
CCCc1cc(=O)[nH]c(SCC(=O)N2N=C(c3ccc(Cl)cc3)CC2c2ccco2)n1 (configuration not stated) | -17.8 | – | 0.517 µM [falling, full curve, poor fit]
CCCNC(=S)N1CCC(n2cnc3ccccc32)CC1 | -14.5 | – | –

Compound | cell number change [%] | AC50 [1] | AC50 [2]
CCCCCCOc1ccc(C(CC(=O)O)C(N)=O)cc1 (configuration not stated) | 1.84 | – | –
COC(=O)c1ccccc1NC(=O)NCCc1ccc(OC)c(OC)c1 | -14 | – | 4.11 µM [falling, partial curve]
COc1ccc(-n2c(O)c(C=Nc3ccccc3)c3ccccc3c2=O)cc1OC | -44.3 | 16.4 µM [falling, single point] | 29.1 µM [falling, single point]
O=C(Cn1nnc2ccccc2c1=O)N[C@@H](Cc1ccccc1)C(=O)O | 27.1 | – | –
COc1ccc(C(=O)OC(C)C(=O)NC2CCCC2)cc1S(=O)(=O)N1CCOCC1 (configuration not stated) | -3.24 | – | 0.0517 µM [rising, full curve]
CN(Cc1c(F)cccc1Cl)S(=O)(=O)c1cccs1 | – | – | 2.51 µM [falling, full curve]
CCOc1ccc(-c2n[nH]c(C)c2-c2ccccc2OC)c(O)c1 | -36.9 | 4.11 µM [falling, full curve, poor fit] | 2.31 µM [falling, full curve]
O=C(Nc1nccs1)c1cccc(NC(=O)C2CC2)c1 | – | 2.06 µM [rising, partial curve] | 2.31 µM [rising, partial curve]
CC(C)Oc1ccc(C(=O)Nc2nnc(C3=COCCO3)o2)cc1 | 3.83 | – | 6.51 µM [falling, single point]
NC(=O)c1nsc(C(=O)N(c2cccc(F)c2)C(C(=O)NC2CCCC2)c2ccco2)c1N (configuration not stated) | 2.08 | – | –
N#C/C(=C/c1ccc(-c2ccccc2[N+](=O)[O-])o1)C(N)=O | -5.41 | – | –
CCOC(=O)N1CCN(C(=O)Cn2cc3c(n2)CCCC3)CC1 | -3.92 | – | –
CCn1c(C)cc(C(=O)CSc2nnc(-c3ccco3)o2)c1C | 6.47 | – | 0.00461 µM [rising, full curve, poor fit]
O=C(O)c1ccc(N2C(=O)c3cccc4c(C(=O)O)ccc(c34)C2=O)cc1 | -28.7 | 0.82 µM [falling, full curve, poor fit] | 0.731 µM [falling, full curve, poor fit]
COc1cc(COCC(O)CN2CCN(Cc3ccc4c(c3)OCO4)CC2)cc(OC)c1OC (configuration not stated) | – | 0.146 µM [rising, single point] | –
Cc1cccc(NC(=O)NNC(=O)COc2ccc(Cl)cc2)c1 | 10.5 | – | –
Cc1ccc(S(=O)(=O)N(C)C)cc1NC(=S)Nc1cccc2ccccc12 | 21.4 | – | 29.1 µM [rising, single point]
Nc1cccc(N2C(=O)c3cccc4c(N)ccc(c34)C2=O)c1 | -78.4 | 29.1 µM [falling, single point] | 29.1 µM [falling, single point]
CC1Cc2ccccc2N1C(=O)CN1CCN(S(=O)(=O)c2cccs2)CC1 (configuration not stated) | 3.8 | – | –
COc1ccc(CCNC(=O)Cn2nnc(-c3ccc(OC)c(OC)c3)n2)cc1OC | -40.5 | 9.2 µM [falling, partial curve] | 13 µM [falling, partial curve]

Compound | cell number change [%] | AC50 [1] | AC50 [2]
Cn1c(CSCc2ccc(F)cc2)nnc1SCC(=O)N1CCN(c2ccccc2)CC1 | -42.9 | 16.4 µM [falling, partial curve] | 18.4 µM [falling, partial curve]
C/C(=N\NC(=O)C1(C)CC1(Br)Br)c1ccc([N+](=O)[O-])cc1 (configuration not stated) | -10.5 | – | 0.326 µM [rising, single point]
CCN1CCN(S(=O)(=O)c2ccc(Cl)c(C(=O)N(C)CCOc3ccc(Cl)cc3)c2)CC1 | 1.72 | – | 6.51 µM [rising, single point]
Cc1ccc(S(=O)(=O)Nc2nc(C)c(C(=O)NNS(=O)(=O)c3cc(C)ccc3C)s2)cc1 | -14.6 | – | 29.1 µM [rising, single point]
CCOc1ccc(S(=O)(=O)N2CCC(C(=O)NCc3cccnc3)CC2)cc1Cl | -10.5 | – | 5.62 µM [falling, single point]
Nc1cccc(-c2cc(-c3ccccc3)nc(-c3cccc(N)c3)n2)c1 | 1.5 | – | 0.0731 µM [rising, full curve, poor fit]
Cn1c(SCC(=O)Nc2ccc3c(c2)OCO3)nnc1-c1cnccn1 | – | – | 0.092 µM [rising, full curve, poor fit]
COc1ccc(OCC(=O)Nc2ccccc2N2CCCCC2)cc1 | 34.1 | 29.1 µM [rising, single point] | –
CNc1ccccc1NC(=O)C1CCCN1C(=O)OCc1ccccc1 (configuration not stated) | 36.6 | – | 29.1 µM [rising, single point]
COc1ccccc1Oc1nnnn1-c1ccc(C(N)=O)cc1 | – | – | 6.51 µM [rising, single point]
CCOc1ccc(S(=O)(=O)N2CCN(C(=O)CN3C(=O)NC(C)(C)C3=O)CC2)cc1 | 17.9 | – | 29.1 µM [rising, single point]
Cc1ccc(S(=O)(=O)N2CCN(C(=O)COC(=O)c3c(C)noc3C)CC2)c(C)c1 | 0.334 | – | 0.184 µM [falling, full curve, poor fit]
Cc1ccc(NC(=O)COC(=O)CCC(=O)c2cccs2)c(Br)c1 | -0.903 | – | 0.0259 µM [rising, full curve, poor fit]
COc1cccc(CNC(=O)c2ccc3c(c2)N(C)CCS3)c1OC | 7.78 | – | 9.2 µM [falling, partial curve]
CCC(CC)NC(=O)C1CCN(c2ccc(S(=O)(=O)N3CCOCC3)cc2[N+](=O)[O-])CC1 | -21.4 | – | 0.00411 µM [rising, full curve, poor fit]
O=C(N/N=C\c1ccc([N+](=O)[O-])o1)C1COc2ccccc2O1 (configuration not stated) | -52.6 | 6.51 µM [falling, partial curve] | 3.26 µM [falling, full curve]
CCOc1ccccc1OCC(=O)Nc1cccc(S(=O)(=O)NC2=NCCCCC2)c1 | 21.9 | – | 29.1 µM [rising, single point]
O=C(O)/C(=C\c1ccc(Cl)c([N+](=O)[O-])c1)c1ccc(S(=O)(=O)N2CCCC2)s1 | 28.2 | – | 13 µM [rising, partial curve, poor fit]
C#CCSc1n[nH]c(-c2ccco2)n1 | -1.59 | – | 0.517 µM [falling, single point]

Whole records from above.
O=C(Cn1nnc2ccccc2c1=O)N[C@@H](Cc1ccccc1)C(=O)O as listed: cell number change [%]: 27.1
CCOc1ccc(S(=O)(=O)N2CCC(C(=O)NCc3cccnc3)CC2)cc1Cl as listed: cell number change [%]: -10.5; AC50 [2]: 5.62 µM [falling, single point]

In another format: entries from further up
Compound	cell number change [%]	AC50 [1]	AC50 [2]
Cn1c(SCC(=O)Nc2ccc3c(c2)OCO3)nnc1-c1cnccn1	–	–	0.092 µM [rising, full curve, poor fit]
COc1ccc(OCC(=O)Nc2ccccc2N2CCCCC2)cc1	34.1	29.1 µM [rising, single point]	–
